Assay results published in PMC4750992, “A New Mutation, hap1-2, Reveals a C Terminal Domain Function in AtMago Protein and Its Biological Effects in Male Gametophyte Development in Arabidopsis thaliana” (PLoS ONE, 2016).

Target: T1, MBP-AtMago (Arabidopsis thaliana) (UniProt O23676)
T1 sequence: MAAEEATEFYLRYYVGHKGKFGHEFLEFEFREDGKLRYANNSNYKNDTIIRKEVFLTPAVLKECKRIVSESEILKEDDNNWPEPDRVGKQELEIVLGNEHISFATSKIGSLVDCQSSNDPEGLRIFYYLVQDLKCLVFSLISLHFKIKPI
Assay: pull-down; MBP, MBP-AtMago or MBP-AtMagoΔC kept on amylose beads; purified His-Y14 or His-eIF4AIII diluted in Column Buffer (200 mM NaCl, 1 mM EDTA, 20 mM Tris-HCl, pH 7.4), 300 μL, on ice 1 hour; three washes; Western blot with anti-His or anti-MBP; both purified

With His-AtY14 (Arabidopsis thaliana) the binding was “binds”.

Results are given in words; binding and its absence hold for the method and conditions named. A result given as binding can be weak or reduced; the word gives no strength. Where a sequence is shown, tags or fusion partners need not be part of it.
